Measurements as given in PubChem BioAssay AID2551 (National Center for Advancing Translational Sciences (NCATS), 2010).
Out of some 310,000 compounds screened, about 17,000 (5.5%) were called active. The inconclusive results got no clear call from the source; some entries with a clear call stand among them for comparison. Calls follow the shape of the dose curve; as a rule, active = well fitted inhibition curve with a large enough effect; inconclusive = small, poorly fitted or top-dose-only effect, or effect the other way; inactive = no such curve, though single readings can be large or run the other way. Potencies of inconclusive entries are doubtful fits and often do not repeat.

Amino acid sequences for entries named in this document (tags omitted). A change or cut given only in a name is not applied to a line headed by its entry.
UniProt P51450: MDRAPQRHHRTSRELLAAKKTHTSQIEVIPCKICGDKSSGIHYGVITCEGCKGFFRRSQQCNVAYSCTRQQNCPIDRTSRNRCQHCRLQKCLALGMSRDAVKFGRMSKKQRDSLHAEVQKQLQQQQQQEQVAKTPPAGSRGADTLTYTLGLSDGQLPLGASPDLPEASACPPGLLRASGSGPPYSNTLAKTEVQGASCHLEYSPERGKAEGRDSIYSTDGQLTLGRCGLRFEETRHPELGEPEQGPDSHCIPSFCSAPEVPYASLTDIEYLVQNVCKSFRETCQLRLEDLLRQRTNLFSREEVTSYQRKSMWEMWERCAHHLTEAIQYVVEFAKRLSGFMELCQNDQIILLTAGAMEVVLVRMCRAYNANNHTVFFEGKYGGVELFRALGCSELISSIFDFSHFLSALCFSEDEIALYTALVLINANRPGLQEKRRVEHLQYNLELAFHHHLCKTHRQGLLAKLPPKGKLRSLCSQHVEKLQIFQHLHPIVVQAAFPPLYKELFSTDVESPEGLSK

What follows are molecules tested against Nuclear receptor ROR-gamma (Mus musculus) (UniProt P51450) (assay: qHTS for inhibitors of ROR gamma transcriptional activity). Settings: Drosophila S2 Gal4-RORgamma UAS-luciferase reporter, 20 h; activity change, negative = inhibition: at 53.6 µM (top of the series).
Outline: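 Stable Schneider cell line, Gal4 DNA-binding domain fused to ROR gamma, UAS-luciferase. Cmpd 1 hr RT → CuSO4 700 uM final → 20 hr RT → luciferase reagent 10 min → luminescence.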
% is scaled to controls: 0 for no effect and ±100 for the full control effect; potency is read from the fitted curve at half-maximal effect.
Also: nearly all actives have a fitted effect of over 60% in size.

Compound | Potency | activity change, negative = inhibition
Cc1ccn2c(NCc3ccccc3)c(-c3cccs3)nc2c1 | active: 14.1 µM | 
Cc1ccc(-n2[nH]c(C)c(C=NC34CN5CN(CN(C5)C3)C4)c2=O)cc1C |  | inactive: -26.9%
CCn1c(SCC(=O)N/N=C/C=C/c2ccccc2[N+](=O)[O-])nnc1-c1ccccc1 | inconclusive: 35.5 µM [activator, single point] | 
O=C(NCCCO)c1cc2c(cn1)[nH]c1ccccc12 |  | inactive: 2.22%
COCCN(Cc1cc2cc(C)cc(C)c2nc1Cl)C(=O)Nc1ccccc1 | inconclusive: 12.6 µM [activator, partial curve] | 
Cc1ccc(NC(=S)N(Cc2ccco2)C2CCN(C(C)C)CC2)cc1 | inconclusive: 35.5 µM [inhibitor, single point] | 
Cc1ccccc1-n1c(SCc2ccccn2)nc2n[nH]c(C)c2c1=N | inconclusive: 35.5 µM [inhibitor, single point] | 
N#C/C(=C\c1c(Cl)cccc1Cl)c1nc2ccccc2o1 | inconclusive: 7.94 µM [inhibitor, partial curve] | 
O=C(NCc1cc(C(F)(F)F)ccc1F)C1CCC(=O)N(C2CC2)C1 (centres undefined) |  | inactive: 4.21%
COc1cccc2sc(NN)nc12 | active: 12.6 µM | 
COC(=O)c1c(NC(NC(=O)C(C)(C)C)C(Cl)(Cl)Cl)sc2c1CCC2 (centres undefined) | inconclusive: 10 µM [activator, single point] | 
CN(C)S(=O)(=O)c1ccc(NC(=O)COc2ncnc3c2cnn3-c2ccccc2)cc1 | inconclusive: 20 µM [activator, single point] | 
Cc1ccc(-n2c(C)cc(/C=N/NC(=O)CN(c3ccc(C)cc3C)S(C)(=O)=O)c2C)cc1 | inconclusive: 31.6 µM [inhibitor, single point] | 
O=C(Nc1ccccc1)c1ccc2ccccc2n1 |  | inactive: -16.1%
Cc1cc(N2C(=O)C(O)=C(C(=O)c3ccc(C)o3)C2c2ccc([N+](=O)[O-])cc2)no1 (centres undefined) |  | inactive: 0.835%
COC(=O)N[C@H](c1ccccc1)[C@@]1(C)C[C@@H]1[C@@H](C)C(=O)Nc1ccc2ccccc2c1 | inconclusive: 22.4 µM [activator, single point] | 
CCOCc1c(C(=O)NC2=Nc3ccccc3NC(CC)=C2C(=O)OCC)oc2ccccc12 |  | inactive: 5.93%
Cc1oc(-c2cccs2)nc1CN1CCN(CC(C)C)C(CCO)C1 (centres undefined) |  | inactive: 4.33%
O=C(Nc1ccc(N2CCOCC2)c(F)c1)c1cccs1 | inconclusive: 20 µM [inhibitor, single point] | 
CC(C)C[C@H](NC(=O)OC(C)(C)C)c1n[nH]c(=S)n1N | inconclusive: 7.94 µM [inhibitor, partial curve] | 
O=C(CSc1nc2ccccc2c(=O)n1-c1ccc(Cl)cc1)c1ccco1 | inconclusive: 35.5 µM [inhibitor, single point] | 
Cc1ccc2nc(N3CCOCC3)c(C=O)c(=O)n2c1 |  | inactive: -1.53%
CCCCn1c(SCc2nc3ccccc3s2)nc2cc(S(N)(=O)=O)ccc21 | inconclusive: 12.6 µM [activator, single point] | 
CC(C)NC(=O)C1CCN(C(=O)c2cc3sccc3n2Cc2ccc(F)cc2)CC1 | inconclusive: 12.6 µM [activator, single point] | 
COc1ccc(C2c3c(ncn(CCCO)c3=N)Oc3ccc4ccccc4c32)cc1 (centres undefined) |  | inactive: -27.6%

Entries listed so far that contain a tert-butyl group, in the order listed:
Compound | Potency | activity change, negative = inhibition
COC(=O)c1c(NC(NC(=O)C(C)(C)C)C(Cl)(Cl)Cl)sc2c1CCC2 (centres undefined) | inconclusive: 10 µM [activator, single point] | 
CC(C)C[C@H](NC(=O)OC(C)(C)C)c1n[nH]c(=S)n1N | inconclusive: 7.94 µM [inhibitor, partial curve] | 

Further structures

Compound | Potency | activity change, negative = inhibition
Cn1c(=O)c2c(O)c(C=Nc3ccc(F)cc3)c(=O)n(C)c2n(C)c1=O |  | inactive: 3.9%
O=C(CCCC(=O)c1ccccc1)NCCc1ccccc1F |  | inactive: -35.8%
Cn1cccc1/C=N\NC(=O)c1cncc(Br)c1 | active: 12.6 µM | 
COc1ccc(/C=N/NC(=O)CNc2n[nH]c(=O)[nH]c2=O)cc1OC | inconclusive: 8.91 µM [inhibitor, partial curve, poor fit] | 
Cc1cccn2cc(CNc3ccccc3)nc12 | inconclusive: 28.2 µM [inhibitor, single point] | 
C=CCNC(=O)C1CCN(c2ccc(S(=O)(=O)N3CCOCC3)cc2Cl)CC1 | inconclusive: 7.08 µM [activator, partial curve] | 
COCCNC(=S)Nc1ccccn1 | active: 17.8 µM | 
Cc1[nH]c2ccc(F)cc2c1CCN(Cc1ccncc1)C(=S)Nc1cccc(F)c1 | inconclusive: 2 µM [activator, full curve, poor fit] | 
S=c1[nH]nc(COc2ccccc2)n1/N=C/c1ccc(Br)cc1 | inconclusive: 2.24 µM [inhibitor, full curve] | 
COC(=O)CSc1nc(C)cc(Oc2ccccc2)n1 |  | inactive: 10.1%
Cc1ccc(NC(=O)Cn2c(O)c(N=NS(=O)(=O)c3ccc(C)cc3)c3ccccc32)cc1 | inconclusive: 6.31 µM [activator, single point] | 
O=C(CSc1nc(-c2ccccc2)cc(C(F)(F)F)n1)NCc1ccco1 |  | inactive: -29.2%
Cc1ccc(S(=O)(=O)N2CCCOC2CNC(=O)C(=O)NCCc2c[nH]c3ccccc23)cc1 (centres undefined) | inconclusive: 17.8 µM [activator, single point] | 
Cc1ccccc1NC(=O)CSC(N)=O |  | inactive: -96.6%
COc1cccc(Nc2c([N+](=O)[O-])cncc2[N+](=O)[O-])c1 | inconclusive: 35.5 µM [inhibitor, single point] | 
O=C(Cc1ccccc1[N+](=O)[O-])NCCCc1ccccc1 | active: 0.224 µM | 
CC(C)C(=O)NC(c1cccc([N+](=O)[O-])c1)c1ccc2cccnc2c1O (centres undefined) | active: 2.82 µM | 
CN1CCc2cc3c(cc2C(=O)Cc2ccc4c(c2C1)OCO4)OCO3 |  | inactive: -17%
O=C(c1ccc(-c2ccccc2)c(F)c1)C1CCCN(C(=O)c2cncs2)C1 (centres undefined) | inconclusive: 35.5 µM [inhibitor, single point] | 
CCOC(=O)C1=C(C)N(c2ccccc2)C(=O)/C1=C\c1ccc(O)c(OC)c1 |  | inactive: -15.1%
COc1ccc(Nc2nc(-c3ccccc3)cs2)cc1 | inconclusive: 0.141 µM [activator, full curve, poor fit] | 
Cc1ccccc1Cn1c(=O)n(C)c(=O)c2sccc21 |  | inactive: 19.3%
O=C(COC(=O)/C=C/c1cccs1)NC1CCCCC1 |  | inactive: 21.6%
Cc1cc(C)n(S(=O)(=O)c2cc(C(=O)O)c(Cl)cc2Cl)n1 |  | inactive: 1.27%
